Binding data for two substances are collected here from doi:10.1101/2025.06.17.660062 (bioRxiv, 2025).

Assay [1] has as its target mCherry-RZZ (ROD-Zwilch-ZW10 complex, wild type) (UniProt P50748). The experiment in a line: SEC. (In general: In gel filtration, larger molecules generally elute earlier.)
Assay [2] deals with T1, GST-BUB1 467−521^FFE (F475A, F500A-E501A) (UniProt O43683).
T1 sequence: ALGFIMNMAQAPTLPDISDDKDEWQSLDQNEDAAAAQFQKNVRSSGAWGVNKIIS
The assay is described as follows: SEC.

The target in assay [3] is T2, GST-BUB1 467−521^FE (F500A-E501A) (UniProt O43683).
T2 sequence: T1 sequence with A9F
The experiment in a line: SEC.

The target in assay [4] is T1, GST-BUB1 467−521^FFE (F475A, F500A-E501A). The experiment in a line: pull-down.
In a further assay the target is T3, GST-BUB1^477-521 (UniProt O43683).
T3 sequence: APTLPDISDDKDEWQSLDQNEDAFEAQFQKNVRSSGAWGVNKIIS
The assay is described as follows: pull-down.

Assay [5] addresses T2, GST-BUB1 467−521^FE (F500A-E501A). The experiment in a line: pull-down.

Substitutions are numbered along the chain they refer to. No constants are given. Whether binding was seen depends on the method and setting. Some entries that bind do so weakly or less than the wild type. For part of these data: Sequences can lack the tags named with a protein.

Consider “BUBR1:BUB3 (from UniProt O60566 1-1050; O43684 1-328) (complex)”, for which the binding result in assay [1] is “no binding”.

In the case of “mCherry-RZZ (ROD-Zwilch-ZW10 complex, wild type) (from UniProt P50748 1-2209; Q9H900 1-591; O43264 1-779)”, the binding result in assay [2] was “no binding”; in assay [3], “no binding”; in assay [4], “no binding”; with GST-BUB1^477-521 it was “binds weakly”; in assay [5] it was “no binding”.
